Values from PubChem BioAssay AID1671195 (Yale University, 2021)
Shown is an unselected part of about 22,000 reagents. About 1,510 of all reagents (6.9%) count as active. 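Active includes knockdowns raising or lowering LDL uptake; positive z-scores mean more uptake, negative mean less.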 Entries without a mark were called inactive.

Purpose: 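Knockdowns that increase or decrease uptake of fluorescent LDL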 (primary screen)
Cell system: human Huh7 hepatoma cells
Reagent: siRNA pool against human genes, 18 nM
Time to read-out: about 2 to 2.5 days of knockdown, then 8 h LDL uptake
Challenge: DiI-labelled LDL at 30 µg/ml for 8 h, in lipoprotein-deficient serum medium
Read-out: 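Per-cell DiI-LDL intensity by automated imaging; well means scaled to the plate median and given as a robust z-score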
Reading the numbers: robust z-score: higher = more LDL uptake after knockdown
Active means: 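Active when two or more replicates show a robust z-score above 2 or below -2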

The first 3 records, to show the layout:
no.	gene knocked down	PubChem SID	robust z-score, replicate 1	robust z-score, replicate 2	robust z-score, replicate 3
1	SERPINA2	SID442893937	-0.176	0.0698	0.0857
2	OR13G1	SID442891039	0.403	0.243	0.369
3	THSD4	SID442903556	-1.3	-1.41	-1.27

The list itself, from the start:
no.	gene knocked down	PubChem SID	robust z-score, replicate 1	robust z-score, replicate 2	robust z-score, replicate 3
1	SERPINA2	SID442893937	-0.176	0.0698	0.0857
2	OR13G1	SID442891039	0.403	0.243	0.369
3	THSD4	SID442903556	-1.3	-1.41	-1.27
4	TM2D3	SID442901520	-1.36	-0.645	-0.726
5	LASP1	SID442895882	0.0822	-0.481	-0.25
6	LOC389441 (retired record)	SID442883549	2.48 (active)	2.94	2.69
7	SPATS1	SID442895444	-0.31	0.0541	-0.252
8	SLC25A18	SID442891862	0.272	0.271	0.167
9	MNT	SID442902943	-1.4	-1.1	-1.04
10	TH	SID442899048	-0.315	-0.718	-0.678
11	CRLF2	SID442884998	2.58	1.06	1.56
12	RBM23	SID442898961	-0.537	-0.932	-0.211
13	SCGB2A2	SID442900985	-0.834	-0.601	-1.07
14	DMXL1	SID442901649	-0.417	-1.79	-0.592
15	ABRACL	SID442890414	0.227	0.46	0.572
16	PPP1R17	SID442887478	1.37	0.879	0.461
17	BRMS1	SID442896763	-0.248	0.48	-1.16
18	EZH2	SID442899951	-0.621	-0.9	-0.55
19	RAD54L	SID442884305	-1.62 (active)	-1.93	-2.11
20	MGAT1	SID442890212	0.874	0.16	0.311
21	LOC441113 (retired record)	SID442902613	-0.835	-1.27	-1.24
22	CHAT	SID442899641	-0.707	-0.754	-0.486
23	PRAMEF17	SID442890832	0.403	0.45	0.24
24	GJA10	SID442892805	1.05	-0.276	-0.411
25	ZNF566	SID442904308	-1.67	-1.13	-1.93
26	KIF1A	SID442903764	-1.64	-1.35	-1.16
27	CLSTN1	SID442892257	-0.216	0.261	0.529
28	RNF216	SID442895511	-0.456	-0.216	0.143
29	C16orf96	SID442888608	0.702	0.724	0.649
30	PTGS2	SID442902012	-1.33	-0.662	-0.999
31	MARS2	SID442897532	-0.507	0.0486	-0.732
32	HNRNPC	SID442886102	1.27	0.897	1.63
33	OR14J1	SID442888603	1.01	0.356	0.711
34	TMEM183A	SID442885869	1.89	1.03	1.1
35	IL12B	SID442900978	-1.25	-0.357	-0.891
36	DCHS2	SID442895363	-0.185	-0.329	0.0266
37	NUDT19	SID442900240	-0.737	-0.631	-0.833
38	SLC25A3	SID442903947	-1.83	-1.47	-1.03
39	PAGR1	SID442901284	-0.574	-1.32	-0.739
40	DLX1	SID442886644	0.274	1.38	1.64
41	ZBTB21	SID442895166	-0.167	-0.0212	-0.237
42	FZD2	SID442890334	-0.00496	0.404	0.896
43	NUAK1	SID442899181	-0.411	-0.886	-0.467
44	EMC3-AS1	SID442903488	-1.25	-1.48	-1.19
45	SH3BGR	SID442902381	-0.175	-1.56	-1.46
46	SNX32	SID442898291	-0.549	-0.784	-0.114
